These results are taken from article PMC4820125.

Amino acid sequences for entries named in this document (tags omitted).
UniProt P03372, whole entry: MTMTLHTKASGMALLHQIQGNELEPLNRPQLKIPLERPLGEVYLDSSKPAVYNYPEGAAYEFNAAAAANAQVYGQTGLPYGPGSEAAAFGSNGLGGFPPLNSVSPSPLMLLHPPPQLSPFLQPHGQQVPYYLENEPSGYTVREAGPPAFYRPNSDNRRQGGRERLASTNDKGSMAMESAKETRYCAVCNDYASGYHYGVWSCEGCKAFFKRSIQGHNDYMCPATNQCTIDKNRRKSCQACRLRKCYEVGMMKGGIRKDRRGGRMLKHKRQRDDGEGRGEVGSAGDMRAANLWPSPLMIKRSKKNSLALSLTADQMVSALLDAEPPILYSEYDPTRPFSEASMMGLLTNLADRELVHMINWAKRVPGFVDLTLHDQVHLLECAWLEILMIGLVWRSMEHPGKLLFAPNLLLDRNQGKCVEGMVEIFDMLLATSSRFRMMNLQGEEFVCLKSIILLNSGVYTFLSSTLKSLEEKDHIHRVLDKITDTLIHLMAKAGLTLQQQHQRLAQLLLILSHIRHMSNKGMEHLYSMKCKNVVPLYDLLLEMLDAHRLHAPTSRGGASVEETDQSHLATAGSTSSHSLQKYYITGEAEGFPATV

Whether high values mean tight binding is not given here for every scale. A value given as a limit tells only on which side of the number the result lay.

This data set concerns the target ERα full length (UniProt P03372). The data set is described as follows: aptamer ELISA. Particulars: 500 nM aptamer; ELISA: 2 h at RT, 2% BSA block; commercial protein; residues 1-595; label: biotin; single-stranded DNA. In general terms: An ELISA detects its analyte on a solid surface through an enzyme-linked reagent.
For the sequence “ATACCAGCTTATTCAATTAGGTACAGAAGGCGCGACAGAAACTGCGGTCCCAGGGCGTAGATAGTATGTGCAATCA [ERaptD1]”, the binding signal (% of anti-ERα antibody signal) is less than 10.

As for “ATACCAGCTTATTCAATTCACAGGGCTGTTTTTACGCAATGCTAGTGTTCGACTCAGTAGATAGTATGTGCAATCA [ERaptD9]”, the binding signal (% of anti-ERα antibody signal) was less than 10.

“ATACCAGCTTATTCAATTCACTAATACTAGGCGGTCCACGCGCAGTTAAACCGGTCAAAGATAGTATGTGCAATCA [ERaptD10]” came in with a binding signal (% of anti-ERα antibody signal) of less than 10.

As for “ATACCAGCTTATTCAATTCGCATAGGCAAAACGGTGCGGTGCATATTCGTGACAAGCGAGATAGTATGTGCAATCA [ERaptD6]”, the binding signal (% of anti-ERα antibody signal) is less than 10.

“ATACCAGCTTATTCAATTGCAGCAGTGTCATATGAGGGCGTTCGTCAAATGTGCAGGGAGATAGTATGTGCAATCA [ERaptD5]” showed a binding signal (% of anti-ERα antibody signal) of less than 10.

On to “ATACCAGCTTATTCAATTGGACGGATGCACACACTACTGACCGGTTTTCGCCAGCCCCAGATAGTATGTGCAATCA [ERaptD7]”, for which the binding signal (% of anti-ERα antibody signal) is less than 10.

As for “ATACCAGCTTATTCAATTGGCGGGCAGCGATTGTACCGGTACCACCTGGCAATGTAGAAGATAGTATGTGCAATCA [ERaptD2]”, the binding signal (% of anti-ERα antibody signal) is less than 10.
